From PubChem BioAssay AID638 (SRMLSC, 2007) come the findings set out here.

Structures are written as SMILES. Among all 1,300 compounds or so, about 65 (5%) were called active.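 Rule for the calls: active = growth inhibition reaching a set limit at one or more tested doses; inactive = the rest.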 Some of the results follow. Measured potencies and affinities stand elsewhere.

The nature of the experiment: wild-type E. coli BW25113 antibacterial activity – OD615, dose response (AID 638). As to conditions: at 100 µM (top of the series) unless noted. The method, boiled down:
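Assay system: E. coli BW25113 wild type. Doses: compound concentration series. Timing: 20 h compound exposure, 37 °C. Technique: OD615 absorbance. Medium: LB broth containing kanamycin at 50 µg/mL. Benchmarks: chloramphenicol at 30 µM final as inhibition control. Measure: IC50 from 4-parameter logistic, bounds fixed 0–100%.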
With `Cc1nn(-c2ccc(F)cc2)c2sc(C(=O)N3CCCCCC3)cc12`, the growth inhibition was inactive: -8.97%.
The same measure for `Cc1nn(-c2ccccc2)c2sc(C(=O)N(CC(=O)NC(C)(C)C)Cc3ccco3)cc12`: inactive: -9.04%.
The same measure for `CCCCCC(=O)Nc1ccccc1N1CCN(c2ccccc2)CC1`: inactive: 1.05%; for `O=C1CC(O)(C(F)(F)F)Oc2c1ccc1ccccc21` (stereo unspecified): inactive: 16.7% [at 50 µM].
The same measure for `Cc1cc(N2C3CCC2CC(O)(c2ccc(F)cc2)C3)nc(-c2ccccc2)n1` (stereo unspecified): inactive: -4.92%.
On to `Cc1ccc(NC(=O)CN(C)S(=O)(=O)c2cccc3nsnc23)cc1Cl`, for which the growth inhibition was inactive: -4.22%.
The same measure for `O=C(Nc1ncc(Br)s1)C(Cc1ccccc1)n1cccc1` (stereo unspecified): inactive: 9.71%; for `CCc1c(O)nc(SCC(=O)Nc2ccc(C)cc2)n(C2CCCCC2)c1=O`: inactive: -10.1%; for `CCOC(=O)c1cnc(-n2nc(C)cc2C)nc1NC1CCCCC1`: inactive: -4.22%.
The same measure for `CC(C)(C)OC(=O)N1CCC[C@H]1c1nnc(SCc2ccc(Cl)cc2Cl)o1`: inactive: 13.3%; for `Cc1cc(C2N=C(N)Nc3nc4ccccc4n32)c(C)n1-c1ccccc1Cl` (stereo unspecified): inactive: 1.25%; for `Cc1cc(C)c(C#N)c(SCc2ccc3c(c2)OCO3)n1`: inactive: -0.93%.
The same measure for `Brc1ccc(-c2nc(-c3ccccc3)no2)o1`: inactive: 11.2%; for `CCOC(=O)c1sc(NC(=O)c2c(C)nn(Cc3ccccc3)c2C)cc1C`: inactive: 6.06%; for `CSc1ccc(S(=O)(=O)Nc2ccc(N3CCOCC3)c(Cl)c2)cc1`: inactive: -2.97%.
Take `CCOC(=O)C1CCN(C(=O)c2oc3ccc(S(=O)(=O)N4CCCCCC4)cc3c2C)CC1`: the growth inhibition was inactive: -8.04%.
The same measure for `CC1(C)Cc2c(c(N3CCCC3)nc3sc4c(N5CCN(CCO)CC5)ncnc4c23)CO1`: inactive: -8.86%; for `COc1ccc2nc3c(cc2c1)c(NC(=O)c1cccs1)nn3CC(C)C`: inactive: -6.34%; for `COC(=O)c1[nH]c2ccc(C)cc2c1NS(=O)(=O)c1ccc(F)cc1`: inactive: -7.43%.
The same measure for `Cc1cccc(Cn2c(=O)c3c(nc4n3CCCN4Cc3ccccc3)n(C)c2=O)c1`: inactive: -5.94%; for `Cc1cccc(N2CC(c3nc4ccccc4n3C)CC2=O)c1C` (stereo unspecified): inactive: -1.12%; for `CCCc1nc2sc3ccccc3c(=O)c2c(=O)n1Cc1ccco1`: inactive: -1.85%.
The same measure for `CCc1c(O)nc(SCc2ccccc2)n(C(C)CC)c1=O` (stereo unspecified): inactive: -5.72%; for `CC1=CC(C)(C)N2C(=O)C3(SCC(=O)N3c3ccc(O)cc3)c3cc(C)cc1c32` (stereo unspecified): inactive: 1.81%; for `COc1ccc(NC(=O)c2cc3c(=O)n(C)c4ccccc4c3n2C)cc1OC`: inactive: -10.6%.
In the case of `COc1cccc(-c2cc(C(=O)Nc3c(C)nn(Cc4ccccc4C)c3C)no2)c1`, the growth inhibition is inactive: -2.6%.
Regarding `Cc1cc(=O)[nH]c(SCC(=O)Nc2nc(-c3ccccc3)cs2)n1`, the growth inhibition was inactive: 3.69%.
The same measure for `O=S(=O)(Nc1nc2ccccc2nc1NCc1ccco1)c1ccccc1`: inactive: -8.38%; for `O=C(CSc1nc2ccccc2o1)Nc1nc2c(s1)CCCC2`: inactive: 18.3%; for `CCCCCCOC(=O)C(C#N)c1nc2ccccc2nc1N1CCN(C)CC1` (stereo unspecified): inactive: 12.3%.
The same measure for `O=C(Cc1ccccc1)Nc1ccccc1N1CCN(c2ccccc2)CC1`: inactive: -11.8%.
The same measure for `Cc1cc(NC(=O)C2CCCCC2)nc2c1c(=O)oc1ccccc12`: inactive: -14.4%; for `COc1ccccc1N1CCN(C(c2ccccc2Cl)c2nnnn2C(C)(C)C)CC1` (stereo unspecified): inactive: 3.17%; for `O=C(CSc1ncc(-c2ccc(F)cc2)n1Cc1ccco1)Nc1ccc2c(c1)OCO2`: inactive: -11.5%.
With `CCn1c(=O)c2cc(C(=O)N3CCN(C(=O)c4ccco4)CC3)sc2c2ccccc21`, the growth inhibition was inactive: 0.55%.
The same measure for `O=C(CSc1n[nH]c(-c2ccco2)n1)N1c2ccccc2Sc2ccccc21`: inactive: 4.38%.
For the compound `Cc1nc(N2CCN(Cc3ccc4c(c3)OCO4)CC2)c2oc3ccccc3c2n1`, the growth inhibition is inactive: -14.2%.
The same measure for `COc1ccccc1-c1nnc(SC/C(O)=C(\C#N)c2nc3ccccc3[nH]2)n1C1CCCCC1`: inactive: -4.94%.
With `COc1ccc(CNC(=O)c2cc(-c3ccccc3OC)on2)cc1`, the growth inhibition is inactive: 10.6%.
The same measure for `COc1ccc(-c2nc3oc4cc(OC)ccc4c(=O)c3c(=O)n2Cc2ccco2)cc1`: inactive: -7.76%; for `O=C(Nc1nnc(-c2ccc3c(c2)CCCC3)o1)C1COc2ccccc2O1` (stereo unspecified): inactive: -7.51%.
The same measure for `CC(=Nc1ccc(O)cc1)c1sc2ccccc2c1O`: inactive: -1.71%; for `COc1ccccc1-c1noc(CCC(=O)Nc2cccc(C(F)(F)F)c2)n1`: inactive: 16.2%.
The same measure for `O=C(CCCSc1nc(-c2ccco2)cc(C(F)(F)F)n1)Nc1ccc2c(c1)OCO2`: inactive: 0.34%; for `CCc1ccccc1NS(=O)(=O)c1ccc2[nH]cc(C(=O)NCc3ccco3)c(=O)c2c1`: inactive: -1.55%; for `COc1ccc(-c2cc(C(=O)N3CC4(C)CC3CC(C)(C)C4)no2)cc1OC` (stereo unspecified): inactive: 6.72%.
For `Cc1cc(=O)[nH]c(-n2nc(C)cc2C)n1`, the growth inhibition was inactive: 14.7%.
`Cc1c(C(=O)OCCOc2ccccc2)[nH]c2c1C(=O)CCC2`: the growth inhibition is inactive: 4.88%.
The same measure for `COc1cccc(-c2nnc(NC(=O)c3ccc(S(=O)(=O)N4CCOCC4)cc3)o2)c1`: inactive: -6.06%.
The same measure for `N#Cc1nc(COc2ccc(Cl)cc2)oc1N1CCCCCC1`: inactive: -0.12%; for `Cc1ccc(C)c(N2CCN(C(=O)c3ccc(NS(=O)(=O)c4c(C)noc4C)cc3)CC2)c1`: inactive: -3%; for `COc1ccc2nc(SCC(=O)N(C)C3CCCCC3)c(C#N)cc2c1`: inactive: -2.36%.
The same measure for `N/C(=N/O)c1nc(N2CCCC2)nc(N(c2ccccc2)c2ccccc2)n1`: inactive: -6.99%; for `CN1C(=O)C2(OCC(COc3ccc(Cl)cc3)O2)c2ccccc21` (stereo unspecified): inactive: -7.83%.
In the case of `Cc1cccc(OCCCCc2c(C)n[nH]c2C)c1C`, the growth inhibition was inactive: 15.9%.
The same measure for `O=S(=O)(NC1CCCC1)c1ccc(S(=O)(=O)N(Cc2cccs2)CC2CCCO2)cc1` (stereo unspecified): inactive: -6.07%; for `C/C(O)=c1/ccc2cccc3nc(C)nc1c23`: inactive: 4.09%.
The same measure for `O=C(Nc1ccc(C(F)(F)F)cc1)C1CCCN1S(=O)(=O)c1cccc2cccnc12` (stereo unspecified): inactive: -5.49%; for `O=C(Nc1nnc(C2CC2)s1)c1cc(-c2ccccc2)nn1-c1ccccc1`: inactive: -12%.
The same measure for `Cc1ccc(C)n1-n1c(C)nc2sc3c(c2c1=O)CCCCC3`: inactive: -12.1%.
On to `COc1cccc(Cn2c(Oc3cccc(C)c3)nc3c2c(=O)n(C)c(=O)n3C)c1`, for which the growth inhibition is inactive: -8.04%.
The same measure for `OC(c1cccc(OCc2ccccc2)c1)c1nnc(-c2ccccc2)o1` (stereo unspecified): inactive: 7%.
The same measure for `COc1ccc2[nH]c(=O)c(CN(C(=O)NC3CCCCC3)C3CCCCC3)cc2c1`: inactive: -6.81%.
The same measure for `CC(C)OCCCNc1ncnc2c1[nH]c1ccccc12`: inactive: 8.07%.
`CCOc1ccccc1N1CCN(Cc2ccc(Br)s2)CC1`: the growth inhibition was inactive: -0.45%.
The same measure for `Cc1cccc(NC(=O)c2cc(NC(=O)C3CCCCC3C(=O)O)ccc2N2CCCCC2)c1` (stereo unspecified): inactive: -4.25%; for `CCCc1cc(C(=O)N2CCN(c3ccccc3C)CC2)cs1`: inactive: 7.72%.
The same measure for `COCCNc1nc(-n2nc(C)cc2C)nc2sc3c(c12)CCCC3`: inactive: 0.91%; for `CCOc1ccc2nc(NC(=O)C(CC)Sc3nc(C)cc(=O)[nH]3)sc2c1` (stereo unspecified): inactive: 2.47%.
On to `Cc1csc(NC(=O)c2cccc(Cn3nc(C)c(Br)c3C)c2)n1`, for which the growth inhibition was inactive: -0.01%.
The same measure for `O=C(COc1ccccc1)Nc1ccccc1N1CCCCC1`: inactive: 7.63%; for `COc1ccc(-c2nnc(NC(=O)c3ccc(S(=O)(=O)N4CCc5ccccc5C4)cc3)o2)cc1`: inactive: -10.5%; for `O=C(N1CCN(c2ccccn2)CC1)N1c2ccccc2Sc2ccccc21`: inactive: -20.2%.
The same measure for `COc1ccccc1N1CCN(c2nc(C)nc3c2oc2ccccc23)CC1`: inactive: -13.5%.
The same measure for `COC(=O)c1ccsc1NC(=O)CN1CCN(c2ccc(F)cc2)CC1`: inactive: -9.19%; for `Cc1ccc2oc(C(=O)NCc3ccc4c(c3)OCO4)c(C)c2c1`: inactive: -0.78%.
With `CCN(CC)c1nc(N)c2c(N)nc3c(c2c1C#N)CC(c1ccccc1)O3` (stereo unspecified), the growth inhibition was inactive: 12.4%.
As for `CCCOC(=O)c1ccc(-c2c(C)noc2-c2ccc(OC)cc2O)o1`, the growth inhibition is inactive: 14.1%.
On to `Cc1cc(C(=O)OCc2nc3ccccc3s2)c(C)o1`, for which the growth inhibition is inactive: 13.3%.
For the compound `C=C(C)COc1ccc(-c2nc(N)ncc2-c2ccc(OC)cc2)c(O)c1`, the growth inhibition is inactive: 9.95%.
The same measure for `COc1ccccc1-c1cc(C(=O)NCc2ccccc2)no1`: inactive: -0.45%; for `O=C(c1cc(-c2ccccc2)on1)N1CCN(Cc2ccc3c(c2)OCO3)CC1`: inactive: 7.5%.
On to `CCOC(=O)c1c(NC(=O)CN(CC)CC)sc2c1CCC2`, for which the growth inhibition was inactive: 11.8%.
The same measure for `Clc1ccc(Cl)c(-c2nn3c(COc4ccccc4)nnc3s2)c1`: inactive: 1.16%; for `C/C(CCc1oc2ccccc2c1-c1ccc(C)o1)=N/O`: inactive: 6.34%.
Turning to `CC(C)(C)n1nnnc1C(c1cccs1)N(Cc1ccccc1)Cc1cccnc1` (stereo unspecified), the growth inhibition was inactive: 13.2%.
The same measure for `O=C(CN(C1CC1)S(=O)(=O)c1ccc(S(=O)(=O)NC2CCCCC2)cc1)Nc1ccccc1`: inactive: -16.4%; for `O=c1c(-c2nc3ccccc3o2)c2oc3ccccc3n2c2ccccc12`: inactive: 1.05%.
The same measure for `CN(C)c1ccc(/C=N/n2ncc3ccccc32)cc1`: inactive: -3.99%.
The same measure for `CN(C1CCCCC1)S(=O)(=O)c1ccc(NC(=O)c2ccc(Br)o2)cc1`: inactive: -6.35%; for `Cc1cccc(-c2cc3nc4c(c(N5CCOCC5)n3n2)CCCC4)c1`: inactive: -0.27%.
